Molecules are shown by their SMILES.

One molecule from publication PMC9740559, “Molecular and Pharmacological Characterization of β-Adrenergic-like Octopamine Receptors in the Endoparasitoid Cotesia chilonis (Hymenoptera: Braconidae)” (International Journal of Molecular Sciences, 2022) can be followed below.

For experiment [1], the system named is T1, CcOctβ1R.
T1 construct: gene Octβ1R
The note with it: read-out: CcOctβ1R / IC50; antagonist; non-saturating OA (100 nM); 100 μM IBMX; 25 °C. An excerpt: inhibition of OA-induced cAMP in stable CHO-K1 cells (cAMP immunoassay) on CcOctβ1R

Experiment [2] has as its system T2, CcOctβ2R.
T2 construct: gene Octβ2R
The note with it: read-out: CcOctβ2R / IC50; antagonist; non-saturating OA (30 nM); 100 μM IBMX; 25 °C. An excerpt: inhibition of OA-induced cAMP in stable CHO-K1 cells (cAMP immunoassay) on CcOctβ2R

Turning to `CN1CCN2c3ccccc3Cc3ccccc3C2C1` (centres unmarked) [Mianserin], the IC50 in experiment [1] was determined as 157 nM; in experiment [2], 75.8 nM.
